Reference: PubChem BioAssay AID493014 (National Center for Advancing Translational Sciences (NCATS), 2011)
Hit rate of the full screen: of about 340,000 compounds, about 170 (0.05%) were called active. The inconclusive results got no clear call from the source; some entries with a clear call stand among them for comparison. Calls come from the whole dose curve; as a rule, active = well fitted inhibition curve with a large enough effect in the signal ratio, with a control signal flat (not every such curve was filed as active); inconclusive = small, poorly fitted or top-dose-only effect, or effect the other way, or a change in a side signal; inactive = flat fitted curve, though single readings scatter; the % refers to the signal ratio. Where the call is inconclusive, the potency comes from a doubtful curve fit.

Experiment: qHTS Assay to Find Inhibitors of Chronic Active B-Cell Receptor Signaling;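 for activity change, negative = inhibition: plate controls were basal doxycycline-induced cells for no effect and cells given 10 µM MG132 for full effect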
Conditions: ABC-DLBCL IkBa-CBG/CBR reporter, luminescence ratio (green luciferase fused to IkBa over red control in TMD8 lymphoma cells), 4 h; activity change, negative = inhibition: at 46.1 µM (top of the series) unless noted
Summary of the method: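 Doxycycline induced both beetle luciferases in TMD8 lymphoma cells; IKK-driven degradation limits the IkappaBalpha-fused green signal, while red luminescence normalises for cell number and nonspecific effects. Compounds tested up to 46 uM, 4 hrs.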
Potency is the fitted concentration of half-maximal effect.

Compound	Potency	activity change, negative = inhibition
COc1ccccc1N=CC=C1OC(C)(C)C(C)(C)O1	inconclusive: 28.2 µM [cytotoxic, single point]	–
CC(=O)NC(CC(=O)N(C)C1CCCCC1)c1ccccc1 (stereo unspecified)	–	inactive: 16.9%
CC[C@@H](CC1CCCCC1)C(=O)N(Cc1ccccc1)c1ccccc1	–	inactive: 2.37%
Nc1c(-c2ccc(Cl)cc2)cnn1-c1ccccc1	inconclusive: 15.8 µM [falling, partial curve]	–
CCOC(=O)N1CCC(NCCNC(=O)c2ccco2)CC1	–	inconclusive: 0.518%
O=C(CSc1ncn(-c2ccccc2)n1)NCc1ccccc1	inconclusive: 4.11 µM [rising, partial curve, poor fit]	–
COc1ccc(-c2c(C)oc3cc(O)cc(O)c3c2=O)cc1OC	–	inconclusive: 1.06%
CCSC1=C(C#N)C(c2ccccc2Cl)C(C(=O)c2cccs2)C(O)(C(F)(F)F)N1 (stereo unspecified)	–	inconclusive: 3.68%
CC(=O)c1cccc(NC(=O)COC(=O)c2n[nH]c3ccccc23)c1	–	inconclusive: -28.1%
COc1ccc(/C=C/C(=O)Nc2cccnc2)cc1OC	inconclusive: 11.2 µM [falling, partial curve]	–
Cc1ccc(OCc2cc(C(=O)NCc3cn4ccccc4n3)no2)cc1C	inconclusive: 20 µM [falling, single point]	–
Cc1ccc2c(c1Br)/C(=N/N1C(=O)c3ccccc3C1=O)C(=O)N2	inconclusive: 35.5 µM [falling, partial curve, poor fit]	–
O=C(Nc1ccc(-c2cscn2)cc1)C1CCCN(Cc2ccccc2)C1 (stereo unspecified)	–	inconclusive: -8.73%
O=c1oc2ccccc2c2nccnc12	–	inconclusive: 1.77%
Cn1c(=O)[nH]c(=O)c2c1nc(N(CCO)Cc1ccccc1)n2CCCc1ccccc1	inconclusive: 6.51 µM [falling, partial curve]	–
CCc1ccc(OCC(O)CN2CCN(c3ccccn3)CC2)cc1 (stereo unspecified)	–	inactive: -8.31%
COc1cc(N)c(Cl)cc1C(=O)N[C@@H]1CCN(CCCOc2ccc(F)cc2)C[C@@H]1OC	inconclusive: 11.2 µM [falling, partial curve, poor fit]	–
COc1ccc(N2CCN(S(=O)(=O)CCNC(=O)Cc3ccc([N+](=O)[O-])cc3)CC2)cc1	–	inconclusive: 14%
Cc1ccccc1Cn1cc(NC(=O)c2nc3ncccn3n2)cn1	–	inconclusive: 13.1%
O=C(COC(=O)CN1C(=O)c2ccccc2C1=O)Nc1cccc(F)c1	–	inconclusive: 2.5%
CCCN(CCC)C(=O)CC(c1ccccc1)C1CCOC(C)(C)C1 (stereo unspecified)	–	inactive: -0.349%

Compound	Potency	activity change, negative = inhibition
FC(F)(F)c1cccc(N2CCc3cn[nH]c32)c1	–	inconclusive: 6.47%
COCCNC(=O)CN(CCc1ccccc1)S(=O)(=O)c1ccc(OC)cc1	inconclusive: 0.13 µM [falling, full curve, poor fit]	–
COC(=O)c1ccc(COc2ccccc2/C=N/NC(N)=O)o1	–	inconclusive: -29.6%
CN1C(=O)c2cccc3c(S(=O)(=O)Nc4ccccn4)ccc1c23	–	inconclusive: 6.52%
CCC(c1nnnn1C(C)(C)C)N1CCN(c2cc(Cl)ccc2C)CC1 (stereo unspecified)	–	inactive: 1.44%
COCCCNC(=O)c1ccc2c(c1)ncn2-c1ccccc1OC	inconclusive: 25.9 µM [falling, single point]	–
COCCOC1CCN(Cc2cn(Cc3ccccc3)nc2-c2cc3ccccc3o2)CC1	–	inconclusive: -19.5%
CS(=O)(=O)c1cccc(C(=O)Nc2cccc(-c3nc4ccccc4[nH]3)c2)c1	inconclusive: 5.62 µM [falling, full curve]	–
O=C(CSCc1ccccc1)N1CCN(c2ccc(F)cc2)CC1	–	inconclusive: 12.2%
CNC(=O)c1nc(C)c(C2(C)CC(c3ccccc3)=NO2)s1 (stereo unspecified)	–	inconclusive: -5.34%
O=S(=O)(Nc1cccc2c1CCCC2)c1cccc(C(F)(F)F)c1	inconclusive: 14.6 µM [activator, partial curve, poor fit]	–
CC(C)(C)N=C1NN=C(c2ccc(S(=O)(=O)N3CCCCC3)cc2)CS1	–	inactive: 12.9%
CCCC(=O)Nc1nc2ccc(NC(=O)c3ccccc3F)cc2s1	inconclusive: 7.94 µM [falling, partial curve, poor fit]	–
CCOC(=O)C1CCN(S(=O)(=O)c2cccc(-c3csc(C)n3)c2)CC1	–	inconclusive: 0.539%
CCN(CC)S(=O)(=O)c1ccc(N/N=C/c2ccc(O)cc2)nc1	–	inconclusive: -11%
CC(=O)c1c(C)[nH]c(C(=O)OCC(=O)C(C)(C)C)c1C	–	inactive: 0.0502%
COc1ccc(CNc2ccc3cn[nH]c3c2)c(OC)c1OC	–	inactive: 14.3%
CCOC(=O)c1c(C)nc2sc(C(=O)Nc3ccc(OC)cc3)c(N)c2c1-c1ccc(OC)cc1	–	inconclusive: 5.57%
CCOc1ccc(NC(=O)c2nccnc2CO)cc1	inconclusive: 31.6 µM [rising, single point]	–
CC1CCc2sc3ncnc(N4CCOCC4)c3c2C1 (stereo unspecified)	–	inconclusive: -16%
CCOC(=O)c1c(SCC(=O)Nc2nccs2)nc(C)c(C)c1C	inconclusive: 22.4 µM [falling, single point]	–

Compound	Potency	activity change, negative = inhibition
CCOC(=O)C1=C(C)Nc2ccccc2S1	–	inconclusive: 17.6%
COc1cccc(NS(=O)(=O)c2ccc3c(c2)CC(=O)N3)c1	–	inconclusive: 2.5%
COc1ccc(Cl)cc1NC(=O)CN(C)CC(=O)Nc1ccccc1-c1ccccc1	–	inconclusive: -19.2%
O=C(N/N=C/c1cccs1)c1cc(-c2ccc3ccccc3c2)n[nH]1	–	inconclusive: 21.5%
N=C(N)SCc1ccccc1Cl	–	inconclusive: -17.9%
Cc1ccc(-c2noc(CN(C(=O)C(c3ccccc3)c3ccccc3)C(C)C)n2)cc1	–	inactive: -2.84%
Cc1ccc(/C=C2/Sc3ccc(C(=O)N4CCN(c5ccccn5)CC4)cc3NC2=O)cc1	–	inactive: 0.238%
O=C(N1CCNCC1)N1CCOCC1	–	inconclusive: -0.888%
CN(C)S(=O)(=O)c1cccc(-n2sc3ccccc3c2=O)c1	inconclusive: 12.6 µM [falling, partial curve]	–
O=C(NCc1csc(-c2cccs2)n1)C1CCC1	–	inconclusive: 12.3%
Cc1sc2nc(C)n(/N=C/N(C)C)c(=O)c2c1C	–	inconclusive: 2.76%
CC(C)COc1ccc(C(=O)CCN2CCCCC2)cc1	–	inconclusive: -9.89%
COc1cc(NC(=O)c2ccc([N+](=O)[O-])o2)ccc1NC(=O)c1cccs1	–	inactive: -18.7%
O=C(Nc1nccs1)c1ccc(Cl)c([N+](=O)[O-])c1	–	inconclusive: -6.19%
Cc1cc(Nc2cccc(F)c2)nc(N2CCOCC2)n1	–	inconclusive: 0.407%
Cc1cc(C)cc(NC2=CC(=O)CC(c3ccco3)C2)c1 (stereo unspecified)	inconclusive: 20.6 µM [falling, partial curve, poor fit]	–
CCNc1c(NC(=O)c2ccc3c(c2)OCO3)c(=O)oc2ccccc12	–	inconclusive: -8.44%
COc1ccc(Nc2cc(C(=O)NCc3ccccc3OC)c3ccccc3n2)cc1	inconclusive: 2.51 µM [rising, full curve, poor fit]	–
O=C(Cc1ccccc1)Nc1ccc2c(c1)OC1(CCCC1)O2	–	inconclusive: 3.19%
Cc1cccc(C(=O)NCC(=O)N2CCN(c3ccc(Cl)cc3)CC2)c1	–	inconclusive: -4.94%
O=C(NCN1C(=O)C2C3C=CC(C3)C2C1=O)Nc1ccccc1O (stereo unspecified)	inconclusive: 11.2 µM [falling, partial curve]	–

An excerpt from above in order of SMILES length, smallest number first.
Compound	Potency	activity change, negative = inhibition
Cc1sc2nc(C)n(/N=C/N(C)C)c(=O)c2c1C	–	inconclusive: 2.76%
CN(C)S(=O)(=O)c1cccc(-n2sc3ccccc3c2=O)c1	inconclusive: 12.6 µM [falling, partial curve]	–
COc1ccc(Cl)cc1NC(=O)CN(C)CC(=O)Nc1ccccc1-c1ccccc1	–	inconclusive: -19.2%
Cc1ccc(-c2noc(CN(C(=O)C(c3ccccc3)c3ccccc3)C(C)C)n2)cc1	–	inactive: -2.84%
Cc1ccc(/C=C2/Sc3ccc(C(=O)N4CCN(c5ccccn5)CC4)cc3NC2=O)cc1	–	inactive: 0.238%

Looked up above.
O=C(NCc1csc(-c2cccs2)n1)C1CCC1 – activity change, negative = inhibition: inconclusive: 12.3%
CCOC(=O)C1=C(C)Nc2ccccc2S1 – activity change, negative = inhibition: inconclusive: 17.6%

Later entries:

Compound	Potency	activity change, negative = inhibition
CCN(C(=O)CN1CCCCC1)C1(C)C(=O)c2ccccc2C1=O	–	inactive: 3.63%
CCCc1cc(C(=O)Nc2cccc([N+](=O)[O-])c2)cs1	–	inconclusive: -4.73%
O=C(CCOc1ccccc1)NCc1ccccc1	–	inconclusive: -0.0219%
Cc1ccc2c(CN(C)Cc3ccc(Cl)cc3Cl)cc(=O)oc2c1	–	inconclusive: 8.52%
CCCc1cc(C(=O)N/N=C/c2ccc(C)o2)c2ccccc2n1	inconclusive: 15.8 µM [falling, partial curve]	–
O=C1CCN(Cc2nc(-c3ccc(Cl)cc3)no2)CCN1	–	inconclusive: 26.8%
COc1ccc(F)cc1S(=O)(=O)NCCc1sc2nc(-c3ccc(F)cc3)nn2c1C	inconclusive: 17.8 µM [falling, partial curve]	–
CN1CCN(C(=O)Nc2cccc(-c3ccccc3)c2)CC1	–	inactive: -2.38%
Cc1ccc(C)c(NC(=O)c2cc(-c3cc(C)cc(C)c3O)n[nH]2)c1	inconclusive: 35.5 µM [rising, single point]	–
Cc1c(C)c2ccc(OCC(=O)Nc3ccccc3C(N)=O)cc2oc1=O	–	inactive: -0.884%
CCCCNCC(O)(c1ccc(Cl)cc1)c1ccc(Cl)cc1	inconclusive: 35.5 µM [falling, partial curve, poor fit]	–
O=C(NCCc1ccccc1)c1cccc(Br)c1	inconclusive: 35.5 µM [falling, partial curve, poor fit]	–
CCN(CC)S(=O)(=O)c1ccc(Cl)c(C(=O)OC2CC(C)OC2=O)c1 (stereo unspecified)	–	inactive: -9.11%
Cn1c(=O)[nH]c(Nc2ccccc2)c([N+](=O)[O-])c1=O	–	inactive: -5.69%
COC(=O)c1c(NC(=O)CN2CCC3(O)CCCCC3C2c2ccc(OC)cc2OC)sc(C)c1C (stereo unspecified)	–	inconclusive: -13.9%
O=C(Nc1ccncc1)C1CC1c1ccccc1 (stereo unspecified)	inconclusive: 0.00411 µM [rising, full curve, poor fit]	–
Cn1c(CCN2CCOCC2)nc2cc(NS(=O)(=O)c3ccccc3)ccc21	–	inactive: 0.316%
CC1=C(C(=O)OCC2CCCO2)C(c2ccccc2OC(C)C)C2=C(CC(c3ccco3)CC2=O)N1 (stereo unspecified)	–	inconclusive: 1.52%
